Experimental data from PMC4909395.
These are yes or no findings as the source states them, for the method shown. In cells and extracts the contact can be indirect. Here binding means that the protein was enriched with, or labelled near, the bait; the list need not be complete.

Amino acid sequences for entries named in this document (tags omitted).
UniProt P78527: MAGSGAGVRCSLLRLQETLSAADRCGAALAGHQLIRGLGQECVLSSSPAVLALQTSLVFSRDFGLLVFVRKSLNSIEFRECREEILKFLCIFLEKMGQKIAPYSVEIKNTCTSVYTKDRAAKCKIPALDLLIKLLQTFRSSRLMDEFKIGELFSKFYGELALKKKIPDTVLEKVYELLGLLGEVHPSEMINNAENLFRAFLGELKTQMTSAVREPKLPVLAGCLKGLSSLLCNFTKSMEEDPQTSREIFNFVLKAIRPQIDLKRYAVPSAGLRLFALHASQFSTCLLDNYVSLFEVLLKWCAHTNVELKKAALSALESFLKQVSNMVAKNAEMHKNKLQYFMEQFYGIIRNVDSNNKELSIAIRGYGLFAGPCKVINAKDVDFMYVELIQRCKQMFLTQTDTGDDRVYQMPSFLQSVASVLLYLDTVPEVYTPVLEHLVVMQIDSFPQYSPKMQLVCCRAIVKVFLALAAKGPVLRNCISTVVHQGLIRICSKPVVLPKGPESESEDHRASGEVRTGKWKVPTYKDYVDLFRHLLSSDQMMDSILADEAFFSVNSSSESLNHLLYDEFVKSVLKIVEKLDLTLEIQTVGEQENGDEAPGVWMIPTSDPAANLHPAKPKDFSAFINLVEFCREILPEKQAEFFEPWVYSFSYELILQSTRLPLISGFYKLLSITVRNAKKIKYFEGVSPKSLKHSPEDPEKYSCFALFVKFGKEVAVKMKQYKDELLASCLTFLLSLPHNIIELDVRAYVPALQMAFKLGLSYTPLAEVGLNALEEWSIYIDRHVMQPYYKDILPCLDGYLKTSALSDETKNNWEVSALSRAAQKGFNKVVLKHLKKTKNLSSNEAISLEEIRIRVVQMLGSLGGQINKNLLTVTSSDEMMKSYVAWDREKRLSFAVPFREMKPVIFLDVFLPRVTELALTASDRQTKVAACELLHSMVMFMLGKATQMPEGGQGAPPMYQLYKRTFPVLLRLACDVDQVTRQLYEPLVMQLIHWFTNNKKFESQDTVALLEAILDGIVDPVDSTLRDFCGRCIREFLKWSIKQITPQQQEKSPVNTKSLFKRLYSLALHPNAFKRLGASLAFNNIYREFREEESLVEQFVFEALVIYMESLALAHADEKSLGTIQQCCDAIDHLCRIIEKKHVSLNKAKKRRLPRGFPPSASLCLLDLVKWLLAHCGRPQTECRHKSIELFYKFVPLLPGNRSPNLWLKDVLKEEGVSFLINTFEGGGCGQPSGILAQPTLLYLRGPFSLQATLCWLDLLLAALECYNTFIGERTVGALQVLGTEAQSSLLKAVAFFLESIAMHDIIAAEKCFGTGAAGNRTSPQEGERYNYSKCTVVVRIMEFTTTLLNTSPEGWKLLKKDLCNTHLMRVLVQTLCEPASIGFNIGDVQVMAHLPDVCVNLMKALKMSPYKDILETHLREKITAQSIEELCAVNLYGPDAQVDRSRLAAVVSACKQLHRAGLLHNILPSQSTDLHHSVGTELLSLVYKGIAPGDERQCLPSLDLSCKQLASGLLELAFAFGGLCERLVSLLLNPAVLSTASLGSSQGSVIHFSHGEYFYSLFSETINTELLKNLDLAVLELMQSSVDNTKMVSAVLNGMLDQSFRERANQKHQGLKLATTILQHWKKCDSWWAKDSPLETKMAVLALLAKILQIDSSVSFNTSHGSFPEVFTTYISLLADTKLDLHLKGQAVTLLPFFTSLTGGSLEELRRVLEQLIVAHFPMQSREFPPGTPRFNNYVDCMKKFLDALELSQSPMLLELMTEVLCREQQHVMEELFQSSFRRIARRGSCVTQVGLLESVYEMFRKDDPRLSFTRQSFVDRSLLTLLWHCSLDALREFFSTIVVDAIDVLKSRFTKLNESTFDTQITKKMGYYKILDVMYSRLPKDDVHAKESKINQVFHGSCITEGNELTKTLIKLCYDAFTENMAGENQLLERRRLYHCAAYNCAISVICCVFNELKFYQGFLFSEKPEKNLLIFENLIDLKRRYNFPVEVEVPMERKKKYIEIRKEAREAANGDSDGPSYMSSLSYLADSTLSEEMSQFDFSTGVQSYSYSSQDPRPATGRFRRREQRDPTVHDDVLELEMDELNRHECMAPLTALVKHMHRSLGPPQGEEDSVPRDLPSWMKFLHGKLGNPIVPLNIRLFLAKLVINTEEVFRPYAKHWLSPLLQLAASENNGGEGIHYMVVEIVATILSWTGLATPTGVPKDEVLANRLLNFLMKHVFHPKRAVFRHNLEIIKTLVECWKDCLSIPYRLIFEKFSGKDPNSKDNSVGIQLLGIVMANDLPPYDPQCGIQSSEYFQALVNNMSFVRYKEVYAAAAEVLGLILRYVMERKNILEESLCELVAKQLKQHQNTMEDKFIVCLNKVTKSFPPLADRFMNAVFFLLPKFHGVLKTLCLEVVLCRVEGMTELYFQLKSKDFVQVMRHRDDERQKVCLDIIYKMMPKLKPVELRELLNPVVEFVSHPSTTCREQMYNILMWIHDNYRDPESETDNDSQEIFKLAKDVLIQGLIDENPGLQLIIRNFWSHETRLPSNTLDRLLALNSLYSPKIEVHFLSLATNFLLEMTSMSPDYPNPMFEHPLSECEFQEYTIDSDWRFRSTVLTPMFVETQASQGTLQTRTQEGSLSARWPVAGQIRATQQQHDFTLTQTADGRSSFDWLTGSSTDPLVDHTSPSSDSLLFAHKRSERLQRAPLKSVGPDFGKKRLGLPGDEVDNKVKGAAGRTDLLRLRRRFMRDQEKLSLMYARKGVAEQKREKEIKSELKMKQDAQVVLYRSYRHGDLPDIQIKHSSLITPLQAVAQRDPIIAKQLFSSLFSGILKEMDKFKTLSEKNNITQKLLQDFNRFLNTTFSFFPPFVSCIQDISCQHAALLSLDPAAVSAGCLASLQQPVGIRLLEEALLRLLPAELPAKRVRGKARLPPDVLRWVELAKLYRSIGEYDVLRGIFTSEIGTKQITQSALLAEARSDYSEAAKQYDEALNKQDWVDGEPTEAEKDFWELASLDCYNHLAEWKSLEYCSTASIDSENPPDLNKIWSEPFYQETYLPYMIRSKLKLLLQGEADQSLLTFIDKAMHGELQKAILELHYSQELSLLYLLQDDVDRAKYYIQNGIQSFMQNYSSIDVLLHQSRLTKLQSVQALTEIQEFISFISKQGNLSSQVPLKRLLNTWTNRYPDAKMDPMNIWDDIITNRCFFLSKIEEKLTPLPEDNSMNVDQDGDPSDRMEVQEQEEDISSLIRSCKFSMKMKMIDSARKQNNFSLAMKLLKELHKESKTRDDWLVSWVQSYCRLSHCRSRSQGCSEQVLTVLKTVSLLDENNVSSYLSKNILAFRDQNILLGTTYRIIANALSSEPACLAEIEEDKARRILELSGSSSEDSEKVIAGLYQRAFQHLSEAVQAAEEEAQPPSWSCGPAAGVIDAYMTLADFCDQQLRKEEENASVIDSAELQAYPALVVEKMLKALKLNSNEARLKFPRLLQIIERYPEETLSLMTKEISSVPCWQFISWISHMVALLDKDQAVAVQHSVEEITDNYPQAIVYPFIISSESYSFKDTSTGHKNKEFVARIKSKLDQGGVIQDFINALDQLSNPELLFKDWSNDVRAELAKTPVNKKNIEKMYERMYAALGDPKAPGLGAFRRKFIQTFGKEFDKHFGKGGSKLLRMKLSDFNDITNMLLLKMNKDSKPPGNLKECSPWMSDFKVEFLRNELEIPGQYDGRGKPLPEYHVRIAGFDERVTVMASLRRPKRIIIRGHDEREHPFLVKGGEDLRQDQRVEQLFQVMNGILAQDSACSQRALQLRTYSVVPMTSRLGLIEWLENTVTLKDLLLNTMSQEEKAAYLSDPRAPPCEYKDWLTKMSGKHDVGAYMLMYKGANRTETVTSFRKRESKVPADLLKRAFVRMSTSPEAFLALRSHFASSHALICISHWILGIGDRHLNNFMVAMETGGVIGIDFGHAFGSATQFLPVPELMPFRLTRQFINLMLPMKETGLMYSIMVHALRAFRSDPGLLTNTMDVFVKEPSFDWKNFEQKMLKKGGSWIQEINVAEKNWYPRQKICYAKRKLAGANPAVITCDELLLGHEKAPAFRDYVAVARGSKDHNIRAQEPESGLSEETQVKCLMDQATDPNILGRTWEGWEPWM
UniProt O14744: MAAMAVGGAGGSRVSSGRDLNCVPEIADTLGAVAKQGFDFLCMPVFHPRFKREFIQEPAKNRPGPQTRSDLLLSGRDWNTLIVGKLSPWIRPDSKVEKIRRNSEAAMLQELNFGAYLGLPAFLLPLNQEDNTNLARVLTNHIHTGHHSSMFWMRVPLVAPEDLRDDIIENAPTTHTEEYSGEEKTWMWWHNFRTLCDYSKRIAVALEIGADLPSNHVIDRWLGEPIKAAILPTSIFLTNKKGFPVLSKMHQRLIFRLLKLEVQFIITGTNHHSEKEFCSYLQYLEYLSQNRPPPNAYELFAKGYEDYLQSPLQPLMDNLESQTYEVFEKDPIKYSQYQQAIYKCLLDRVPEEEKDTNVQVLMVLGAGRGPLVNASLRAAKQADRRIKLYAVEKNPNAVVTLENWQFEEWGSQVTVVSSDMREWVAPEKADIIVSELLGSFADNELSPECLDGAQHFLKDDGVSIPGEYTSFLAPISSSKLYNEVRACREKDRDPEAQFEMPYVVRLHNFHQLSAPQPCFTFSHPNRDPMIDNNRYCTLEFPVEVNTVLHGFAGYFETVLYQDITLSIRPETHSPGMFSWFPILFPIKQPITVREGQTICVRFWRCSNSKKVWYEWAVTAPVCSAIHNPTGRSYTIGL

target: T1, ERG (endogenous, from TMPRSS2:ERG-positive VCaP cells) (human (endogenous in VCaP)) (UniProt P11308); experiment: affinity purification with mass spectrometry; nuclear extracts of VCaP cells (~600 million cells), pre-cleared; ERG antibody (Santa Cruz #353) or anti-rabbit IgG pre-coupled to beads; elution at pH 2.5; gel lanes digested, LC-MS/MS
T1 sequence: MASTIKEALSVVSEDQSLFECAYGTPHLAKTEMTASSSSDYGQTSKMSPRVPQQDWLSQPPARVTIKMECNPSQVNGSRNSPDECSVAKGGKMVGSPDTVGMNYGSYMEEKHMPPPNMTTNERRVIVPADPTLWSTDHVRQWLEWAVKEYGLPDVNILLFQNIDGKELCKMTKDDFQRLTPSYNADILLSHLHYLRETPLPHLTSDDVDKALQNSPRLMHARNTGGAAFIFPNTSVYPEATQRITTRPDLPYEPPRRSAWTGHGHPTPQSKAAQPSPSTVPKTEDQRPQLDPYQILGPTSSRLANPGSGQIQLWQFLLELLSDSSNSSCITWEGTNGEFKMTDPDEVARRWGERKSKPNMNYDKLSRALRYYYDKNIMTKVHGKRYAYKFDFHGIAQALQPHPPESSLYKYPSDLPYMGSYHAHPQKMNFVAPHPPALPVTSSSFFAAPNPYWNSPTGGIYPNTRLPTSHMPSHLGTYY

Row | binding | Substance
1 | binds | DNA-PKcs (endogenous, VCaP cells) (from UniProt P78527 1-4128)
2 | binds | PRMT5 (endogenous) (from UniProt O14744 1-637) (enzyme)
3 | binds | Androgen Receptor (endogenous, VCaP cells) (from UniProt P10275-1 1-920)
